# Results as given in PubChem BioAssay AID2517 (National Center for Advancing Translational Sciences (NCATS), 2010).
# Amino acid sequences for entries named in this document (tags omitted).
# UniProt P27695, whole entry, looked up: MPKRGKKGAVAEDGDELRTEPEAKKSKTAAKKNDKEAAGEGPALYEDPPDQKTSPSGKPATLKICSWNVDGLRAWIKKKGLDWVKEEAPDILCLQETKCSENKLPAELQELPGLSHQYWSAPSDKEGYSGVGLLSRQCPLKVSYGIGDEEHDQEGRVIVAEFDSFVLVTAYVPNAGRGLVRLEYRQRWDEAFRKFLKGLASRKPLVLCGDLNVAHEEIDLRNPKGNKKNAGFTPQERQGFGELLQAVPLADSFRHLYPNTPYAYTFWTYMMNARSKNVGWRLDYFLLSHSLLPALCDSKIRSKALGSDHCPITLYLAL
# “And” between values parts separate entries of the source, which are not always exact repeats. Equal values may be shown once. Screen size: about 350,000 compounds; about 1,200 (0.34%) were called active. Inconclusive means that the source gave no clear call. Such entries were picked first, then a sample of the others. Calls come from the whole dose curve; as a rule, active = well fitted inhibition curve with a large enough effect; inconclusive = small, poorly fitted or top-dose-only effect; inactive = no such curve, though single readings can be large or run the other way. Potencies beside an inconclusive call are fits to weak or partial responses and may not hold up.
# Biological target: DNA repair nuclease/redox regulator APEX1 (Homo sapiens) (UniProt P27695)
# Experiment: qHTS Assay for Inhibitors of the Human Apurinic/apyrimidinic Endonuclease 1 (APE1); note: nearly all actives have a fitted effect of over 55% in size;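 for activity change, negative = inhibition: plate controls were vehicle for no effect and reference inhibitor for full effect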
# Details: recombinant APE1, TAMRA/BHQ-2 abasic DNA cleavage fluorescence; activity change, negative = inhibition: at 65.8 µM (top of the series)
# Outline: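 Quantitative HTS: incision of a TAMRA/BHQ-2 double-stranded substrate bearing a tetrahydrofuran abasic site by 0.75 nM APE1 raises fluorescence. Substrate 50 nM final, added after 15 min compound preincubation at room temperature; progress as third-minus-first kinetic read difference.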
# Potency is the fitted concentration of half-maximal effect.
SMILES,Potency,"activity change, negative = inhibition"
COC(=O)c1sc(N2C(=O)C(=O)/C(=C(/O)c3ccccc3)C2c2ccco2)nc1C (configuration not stated),"inconclusive: 44.7 µM [inhibitor, single point]",–
C/C(=N/NC(=O)c1cc2ccccc2cc1O)C1C(=O)c2ccccc2C1=O,"inconclusive: 39.8 µM [inhibitor, single point]",–
CCOC(=O)NC1(NCc2ccccc2)Oc2ccccc2O1,active: 2.51 µM,–
COc1ccc(/C=N/Nc2cc(OC)ncn2)cc1,"inconclusive: 44.7 µM [inhibitor, single point]",–
COc1cc(/C=C2\C(=O)N(c3ccc(NC(C)=O)cc3)N=C2c2ccccc2)ccc1O,"inconclusive: 0.891 µM [inhibitor, full curve]",–
CN1CCN(CCC(=O)N/N=C/c2ccccc2F)CC1,inactive,–
CCN1CCN(c2nc(N)c([N+](=O)[O-])c(Nc3ccc(C)c(C)c3)n2)CC1,"inconclusive: 7.08 µM [inhibitor, single point]",–
NC(=O)/C(=C/c1ccco1)C(N)=S,"inconclusive: 31.6 µM [inhibitor, single point]",–
COc1ccc2c(c1)C=C(CN1CCN(C3CCCC3)C(CCO)C1)CO2 (configuration not stated),"inconclusive: 44.7 µM [inhibitor, single point]",–
CCCc1cc(=O)[nH]c(SCC(=O)Nc2sc3c(c2C#N)CCC(C)C3)n1 (configuration not stated),inactive,–
CC(=O)Nc1sc(N)nc1-c1ccccc1,"inconclusive: 25.1 µM [inhibitor, partial curve]",–
Cc1c(C(=O)NCCc2ccccc2)oc2ccc(S(=O)(=O)N3CCOCC3)cc12,"inconclusive: 50.1 µM [inhibitor, single point]",–
CCOC(=O)C1CCN(c2nc(N)c3c(N)nc(SCC(=O)O)cc3c2C#N)CC1,"inconclusive: 8.91 µM [inhibitor, partial curve]",–
Cc1c(N=Nc2c(-c3ccc([N+](=O)[O-])cc3)[nH]n(C(N)=S)c2=O)cccc1[N+](=O)[O-],inactive,–
CC(CN1CCOCC1)OC(=O)C(C)(c1ccccc1)c1ccccc1 (configuration not stated),"inconclusive: 28.2 µM [inhibitor, partial curve]",–
NC1=NC(=O)/C(=C/c2cccs2)S1,inactive,–
C=CCn1c(SCC(=O)c2ccc(O)c(O)c2)nnc1-c1cccc(OC)c1,inactive,–
CCN(C(=O)COC(=O)c1ccc2[nH]c3c(c2c1)CCCC3)C1CCS(=O)(=O)C1 (configuration not stated),"inconclusive: 11.2 µM [inhibitor, partial curve, poor fit]",–
Cc1ccc(S(=O)(=O)n2nc(-n3c(C)ccc3C)c3c(F)cccc32)c2ccccc12,inactive,–
Cc1cc2c3c(c1)C(C)(c1ccccc1)CC(C)(C)N3C(=O)C21C(C#N)=C(N)OC2=C1C(=O)CC(C)(C)C2 (configuration not stated),"inconclusive: 44.7 µM [inhibitor, partial curve]",–
CN(/N=C/c1ccc(N(C)C)cc1)C1=NS(=O)(=O)c2ccccc21,active: 23.8 µM,–
CCC1=Nc2cc(C(=O)NCc3ccco3)ccc2Sc2ccccc21,inactive,–
CCOc1ccc(Nc2nc(NCC3CCCO3)c3ccccc3n2)cc1 (configuration not stated),inactive,–

SMILES,Potency,"activity change, negative = inhibition"
O=C1ON=C(c2ccccc2)/C1=C/c1ccco1,"inconclusive: 25.1 µM [inhibitor, single point]",–
O=C(CCN1C(=O)/C(=C/c2cccc(Br)c2)SC1=S)NNC(=O)c1cccnc1,"inconclusive: 0.126 µM [inhibitor, full curve]",–
CC(C)=C1C(=O)NN(c2ccc(C)c(Cl)c2)C1=O,inactive,–
O=C(O)c1ccc(-n2c(-c3cc(-c4ccco4)[nH]n3)n[nH]c2=S)cc1,"inconclusive: 17.8 µM [inhibitor, partial curve]",–
Cn1c2ccccc2c(=O)n2c(=O)c3ccccc3cc12,"inconclusive: 39.8 µM [inhibitor, single point]",–
O=C(Nc1ccccc1F)c1ccc(Br)o1,"inconclusive: 3.16 µM [inhibitor, single point] and inconclusive: 6.3 nM [inhibitor, full curve, poor fit]",–
CCOc1ccc(/C(C)=N/NC(=O)Cn2nc([N+](=O)[O-])cc2C)cc1,"inconclusive: 0.355 µM [inhibitor, full curve, poor fit]",–
O=C(Cc1ccc(S(=O)(=O)N2CCCC2)s1)N1CCN(c2ccccc2)CC1,"inconclusive: 28.2 µM [inhibitor, single point]",–
O=C(Nc1ccc(O)cc1)/C(=C\c1ccncc1)NC(=O)c1ccccc1,"inconclusive: 8.91 µM [inhibitor, single point]",–
Cc1cc(C)c2c(c1)/C(=c1/sc3n(c1=O)CN(c1ccccc1)CN=3)C(=O)N2,"inconclusive: 31.6 µM [inhibitor, single point]",–
O=C(Nc1ccc(-c2nc3ncccc3o2)cc1)c1ccco1,"inconclusive: 31.6 µM [inhibitor, single point]",–
Cc1ccc(S(=O)(=O)N(C(=O)c2ccncc2)c2ccc(OC(=O)c3ccncc3)c3ccccc23)c(C)c1,inactive,–
COc1cc(O)c2c(=O)c(O)c(-c3ccc(O)c(O)c3)oc2c1,"inconclusive: 3.98 µM [inhibitor, full curve]",–
Cc1cc(C)n(Cc2ccccc2F)c(=O)c1C#N,"inconclusive: 2.51 µM [inhibitor, single point]",–
CCc1ccccc1NC(=O)CN(C)C(=O)COc1ccc(C)nc1[N+](=O)[O-],"inconclusive: 39.8 µM [inhibitor, single point]",–
COc1ccc(-c2csc(NC(=O)CSc3nc4ccccc4c(=O)[nH]3)n2)cc1,–,inactive: 20.7% [at 12.4 µM]
N#CC1=C(N)Oc2n[nH]c(-c3cccs3)c2C1c1ccccc1C(=O)O (configuration not stated),inactive,–
Cc1ccc(S(=O)(=O)NC(CCc2ccccc2)CC(=O)C(C)(C)C)cc1 (configuration not stated),"inconclusive: 3.55 µM [inhibitor, single point]",–
CCCCNc1nc(C)nc2c1nc(-c1ccccc1)n2CC1CCCN1CC (configuration not stated),"inconclusive: 70.8 µM [inhibitor, partial curve, poor fit]",–
Cc1nc2c(C(=O)NCCc3ccccc3)c[nH]n2c(=O)c1Cl,inactive,–
O=C(c1ccccc1)c1cc(Cl)ccc1N1C(=O)C=CC1=O,inactive,–
CCOc1ccccc1-n1c(SCC(=O)NCc2ccco2)nnc1-c1ccncc1,"inconclusive: 3.16 µM [inhibitor, full curve, poor fit]",–
CCOC(=O)N1CCC(N2Cc3cccc(C(=O)NCc4ccc5c(c4)OCO5)c3C2=O)CC1,"inconclusive: 28.2 µM [inhibitor, partial curve]",–

# Single entries from the entries so far:
# COc1cc(O)c2c(=O)c(O)c(-c3ccc(O)c(O)c3)oc2c1 | Potency: inconclusive: 3.98 µM [inhibitor, full curve]
# O=C(CCN1C(=O)/C(=C/c2cccc(Br)c2)SC1=S)NNC(=O)c1cccnc1 | Potency: inconclusive: 0.126 µM [inhibitor, full curve]
# CCOc1ccccc1-n1c(SCC(=O)NCc2ccco2)nnc1-c1ccncc1 | Potency: inconclusive: 3.16 µM [inhibitor, full curve, poor fit]

# More compounds

SMILES,Potency,"activity change, negative = inhibition"
COc1ccc(C(=O)Nc2sc3c(c2C(N)=O)CCCC3)cc1OC,inactive,–
O=C(Nc1ccc(Br)cc1Cl)c1cnccn1,inactive,–
O=c1cc(-c2cccnc2)oc2c1ccc1ccccc12,"inconclusive: 12.6 µM [inhibitor, partial curve, poor fit]",–
C=Cc1ccc(C(=O)N2CCCC(CCC(=O)N3CCN(c4ccccn4)CC3)C2)cc1 (configuration not stated),active: 0.67 µM,–
CCOC(=O)CN1C(=O)N[C@@H](c2ccc(Br)cc2)C(C(=O)OC)=C1C,"inconclusive: 0.0398 µM [inhibitor, full curve]",–
Cc1ccc2cc(C)c(N3CCC(C)CC3)nc2c1,"inconclusive: 17.8 µM [inhibitor, partial curve, poor fit]",–
COc1ccc(O[C@H]2C=C[C@@H](c3ccccc3)O[C@H]2CO/N=C\C[C@@H]2C=C[C@H](OC(C)=O)[C@H](COC(C)=O)O2)cc1,"inconclusive: 7.94 µM [inhibitor, single point]",–
O=C1CSC(=S)N1/N=C/c1ccc2c(c1)OCCO2,inactive,–
COc1cc2c(cc1NC(=O)C(C)Sc1nc3ccccc3n1C)oc1ccccc12 (configuration not stated),"inconclusive: 31.6 µM [inhibitor, single point]",–
C=CCc1c(O)c(CC)cc2c(C)cc(=O)oc12,"inconclusive: 44.7 µM [inhibitor, single point]",–
COCCOC(=O)N/C=C\c1nc2ccccc2c(=O)[nH]1,"inconclusive: 15.8 µM [inhibitor, single point]",–
N#Cc1ccccc1CN1C(=O)S/C(=C/c2cccn2-c2cccc(C(=O)O)c2)C1=O,"inconclusive: 20 µM [inhibitor, partial curve]",–
O=C(NCc1ccco1)c1cc(C(=O)C2CCCCC2)c[nH]1,"inconclusive: 44.7 µM [inhibitor, single point]",–
COc1ccc(OCCSc2nc3nc(C)cc(C)n3n2)cc1,"inconclusive: 35.5 µM [inhibitor, single point]",–
CCCC[C@H](CN(N=O)[C@@H](Cc1ccccc1)CN(C)N=O)N(CCc1ccccc1)N=O,inactive,–
CN(C)S(=O)(=O)c1ccc(C(=O)Nc2ccccc2OC(F)(F)C(F)F)cc1,"inconclusive: 44.7 µM [inhibitor, single point]",–
COc1ccc(NC(=O)Nc2ccc(N3CCOCC3)c3nonc23)c(OC)c1,"inconclusive: 44.7 µM [inhibitor, single point]",–
CCC(CC)NC(=O)CON=C1c2ccccc2-c2ccccc21,"inconclusive: 6.31 µM [inhibitor, single point]",–
CCc1ccc(NC(=O)c2cnn(-c3ccccc3)c2C2CCNCC2)cc1,"inconclusive: 0.178 µM [inhibitor, full curve, poor fit]",–
O=C(O)c1ccccc1-c1c2cc(Br)c(=O)c(Br)c-2oc2c(Br)c(O)c(Br)cc12,"inconclusive: 31.6 µM [inhibitor, single point]",–
Cc1ccc(-n2cccn2)cc1,inactive,–
